The results in this text go back to patent publication US12439951B2, “Aerosolizable material with cannabinoid and carrier constituent” (Nicoventures Trading Limited, priority 2019, dated 2025).

The series in a line: Solubility of cannabidiol in glycerol/propylene glycol/water solutions. The class given is physicochemical. The settings on record: Isolate 10 mg/mL, Glycerol 36 w/w. An excerpt: Thus, by controlling the amount of water present in the system, there was no need for the inclusion of a surface active constituent in order to ensure stability of the aerosolizable material.

With `C=C(C)[C@@H]1CCC(C)=C[C@H]1c1c(O)cc(CCCCC)cc1O` [Isolate, cannabidiol], the Soluble result by setting is: (PG 52.09 w/w, Water 11 w/w) “YES”; (PG 53.09 w/w, Water 10 w/w) “YES”.
